PubChem BioAssay AID743454, Peter MacCallum Cancer Centre | 2014
The deposit covers about 18,000 reagents; below is a part drawn at random. In the full data, 450 (2.5%) are marked active. 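Single biological run; no consistent viability z cut-off exists, so the class columns, not z-scores, define the calls.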

- Screen: 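Knock-downs lowering viability or raising caspase 3/7 activity in vorinostat-treated resistant cells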 (primary screen)
- Cell system: human HCT116-VR colon cancer cells, selected for vorinostat resistance
- Reagents: siRNA pool against human genes, 40 nM siRNA pool
- Duration: vorinostat for 24 h, read-out about 72 h after transfection
- Conditions: vorinostat at 2.5 µM final
- Measurement: 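Two measures, CellTiter-Fluor viability and luminescent caspase 3/7 activity, each as fold change against same-plate mock wells, mean of duplicates, then screen-wide robust z-score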
- Reading the numbers: viability robust z-score: higher = more viable cells than screen typical; caspase robust z-score: higher = more caspase 3/7 activity than screen typical
- Active means: 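a knock-down is a hit when classed RV1 or RV2 for lowered viability, or CA1 or CA2 for caspase activation; those lethal without drug were dropped; hits were retested singly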

Target gene | viability hit class | caspase hit class | viability robust z-score | caspase robust z-score | outcome
PARVA | no change | no change | 1.21 | -0.12 | inactive
ZNF343 | no change | no change | 0.79 | -0.72 | inactive
ZNF207 | no change | no change | -1.69 | -0.4 | inactive
RPS17P16 | no change | no change | 0.1 | -0.73 | inactive
TRPC1 | no change | no change | -1.64 | 0.64 | inactive
ST6GALNAC4 | no change | no change | -0.54 | -0.03 | inactive
PDGFA | no change | no change | 0.15 | -0.45 | inactive
WDR33 | no change | no change | -0.1 | -0.08 | inactive
RIDA | no change | no change | -0.07 | -0.62 | inactive
TPD52L1 | no change | no change | 0.02 | 0.76 | inactive
ASB3 | no change | no change | -0.56 | 0.82 | inactive
PIK3R4 | no change | no change | -0.3 | 0.7 | inactive
MEAK7 | no change | no change | 1.39 | 0.92 | inactive
NCAM1 | no change | no change | -0.46 | 0.23 | inactive
UBAP2 | no change | no change | 0.01 | 2.67 | inactive
NXF5 | no change | no change | 0.22 | -0.53 | inactive
RNF111 | no change | no change | 0.92 | -0.3 | inactive
KDM3A | no change | no change | -0.48 | -0.98 | inactive
OR1L8 | no change | no change | 0.64 | -0.32 | inactive
KEAP1 | no change | no change | 0.18 | 0.15 | inactive
PRCC | no change | no change | -0.69 | 0.02 | inactive
CDK11A | no change | no change | -2.82 | 1.31 | inactive
CYP27C1 | no change | no change | -0.1 | 2.2 | inactive
ADAMTS4 | no change | no change | 0.25 | -0.62 | inactive
KRT24 | no change | no change | 0.74 | 0.2 | inactive
PIGC | no change | no change | -0.22 | 0.81 | inactive
RAB25 | no change | no change | -1.47 | 0.84 | inactive
FCHSD2 | no change | no change | 0.18 | 0.05 | inactive
SOX8 | no change | no change | -0.7 | 2.82 | inactive
VIPAS39 | no change | no change | 1.08 | -0.7 | inactive
TMED10 | no change | no change | -1.17 | 0.62 | inactive
HYAL4 | no change | no change | -3.13 | 0.96 | inactive
NHERF1 | no change | no change | -0.1 | 1.04 | inactive
SLC26A11 | no change | no change | -3.21 | 2.42 | inactive
METTL2A | no change | no change | 0.8 | -1.16 | inactive
ERP29 | no change | no change | -0.42 | 0.92 | inactive
DMKN | no change | no change | -1.88 | 0.4 | inactive
GSC | no change | no change | -2.62 | 1.82 | inactive
CLTB | no change | CA2 (caspase activation) | -1.36 | 5.9 | active
PIWIL2 | no change | no change | 0.26 | 0.52 | inactive
LSM4 | no change | no change | -0.85 | -0.09 | inactive
USP51 | no change | no change | 0.1 | -0.07 | inactive
CMPK2 | no change | no change | 0.34 | -0.57 | inactive
CRYGN | no change | no change | -0.5 | 0.54 | inactive
AMPH | no change | no change | 0.29 | -0.62 | inactive
MISP | no change | no change | 0.81 | -0.84 | inactive
KRT35 | no change | no change | 0.11 | -1 | inactive
MPZL3 | no change | no change | -0.36 | 0.74 | inactive
OPA1 | no change | no change | 0.52 | -0.66 | inactive
SEC11B | no change | no change | -0.16 | 1.73 | inactive
C1orf141 | no change | no change | 1.21 | -0.63 | inactive
CLDN6 | no change | no change | -2.66 | 3.12 | inactive
ETS2 | no change | no change | 0.38 | 1.98 | inactive
CNTNAP1 | no change | no change | -0.77 | 0.92 | inactive
USP50 | no change | no change | 0.54 | 0.31 | inactive
PURG | no change | no change | 0.92 | -0.84 | inactive
UQCC2 | no change | no change | 0.82 | 0.31 | inactive

Copied from the list.
Value of C1orf141 under “outcome”: inactive
For “caspase hit class”, RAB25 is entered as no change
Under “caspase hit class”, RPS17P16 is entered as no change
Value for NCAM1 in “caspase robust z-score”: 0.23
Under “caspase hit class”, TPD52L1 reads no change
Entry for ZNF343 under “viability hit class”: no change
